SMILES strings stand for the structures. The list shows only some results of the screen, not a fair sample: it is rich in T/C values a quarter to a half above the control, in often repeated tests (any T/C) and in doses without a T/C. Other doses and runs of a compound stand elsewhere. T/C: endpoint of the treated group in % of that of the vehicle group. Schedules are NCI's codes, read here as Q, the interval in days (D) or hours (H), X, the number of doses. Some entries were tested several times; their values stand side by side, smallest first. Some T/C values carry the count of animals alive at the toxicity check (mostly the fifth day); where none is given, no animal had died by that day. Some entries give survivors of the animals treated and no T/C: the source holds a T/C of zero for them, seemingly a mark for toxic or unscored doses. Survivors were counted at the toxicity check, usually on the fifth day, unless a day is given; later deaths do not show.

This is an account of results in PubChem BioAssay AID278 (DTP/NCI, 2004).

The assay relates to nude mice, A549 intrarenal xenograft, tumor weight change. In words: NCI In Vivo Anticancer Drug Screen. Data for tumor model A549 Human Adenocarcinoma of Lung with characteristics of Type II Alveolar Epithelial cells (intrarenal inoculation) in NU/NU BALB/C (nude) mice. The note with it: T/C endpoint: mean tumor weight change, schedule: Q04DX003 (ip), higher T/C = larger tumour. In a few lines: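 Mice bearing transplantable tumors were treated and survival or tumor size recorded. Values are given as treated-group measurement divided by vehicle-control measurement (T/C).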

The mark [1] stands for this setting: dose: 300.0 mg/kg/injection, vehicle: saline with Tween-80.
Where [2] appears, read: dose: 200.0 mg/kg/injection, vehicle: Klucel (hydroxypropylcellulose) (HPC).
Setting [3] is: dose: 400.0 mg/kg/injection, vehicle: Klucel (hydroxypropylcellulose) (HPC).
The mark [4] stands for this setting: dose: 300.0 mg/kg/injection, vehicle: Klucel (hydroxypropylcellulose) (HPC).

As for `O=C1c2cccc(NCCCNCCO)c2C(=O)c2cccc(NCCCNCCO)c21`, the survivor count (dose: 50.0 mg/kg/injection, vehicle: acid diluted with saline) was 1 of 6 on day 12.
`O=C1CN(c2ccccc2)C(=O)C1C(=O)Nc1ccc(Cl)c(Cl)c1` (configuration not stated): the T/C reads like this: (dose: 120.0 mg/kg/injection, vehicle: saline with Tween-80, evaluated on day 11) 39 % of control; (dose: 120.0 mg/kg/injection, vehicle: saline with Tween-80, evaluated on day 12) 45, 90, 91 % of control; (dose: 240.0 mg/kg/injection, vehicle: saline with Tween-80, evaluated on day 11) 21 % of control; (dose: 240.0 mg/kg/injection, vehicle: saline with Tween-80, evaluated on day 12) 50, 62, 82 % of control; (dose: 480.0 mg/kg/injection, vehicle: saline with Tween-80, evaluated on day 11) 57 % of control; (dose: 480.0 mg/kg/injection, vehicle: saline with Tween-80, evaluated on day 12) 38 % of control [4 of 6 alive on day 12]. For the same molecule, the T/C (dose: 960.0 mg/kg/injection, vehicle: saline with Tween-80, evaluated on day 11) was 11 % of control. The survivor count is, setting by setting: (dose: 346.0 mg/kg/injection, vehicle: saline with Tween-80) 1 of 6 on day 12; (dose: 480.0 mg/kg/injection, vehicle: saline with Tween-80) 1 of 6 on day 12 and 2 of 6 on day 12; (dose: 576.0 mg/kg/injection, vehicle: saline with Tween-80) 0 of 6 on day 12; (dose: 960.0 mg/kg/injection, vehicle: saline with Tween-80) 0 of 6 on day 12 and 2 of 6 on day 12; (dose: 1600.0 mg/kg/injection, vehicle: saline with Tween-80) 0 of 6 on day 12.
Turning to `O=C1C=C(N2CC2)C(=O)C(N2CC2)=C1N1CC1`, the survivor count by setting is: (dose: 400.0 micrograms/kg/injection, vehicle: saline + alcohol) 2 of 6 on day 12; (dose: 400.0 micrograms/kg/injection, vehicle: saline) 1 of 6 on day 12; (dose: 666.66 micrograms/kg/injection, vehicle: saline + alcohol) 0 of 6 on day 12.
Take `c1ccc2c3c(c4c(c2c1)CN(C1CCCCC1)CO4)OCN(C1CCCCC1)C3`: the survivor count is listed as 2 of 6 on day 12 (dose: 75.0 mg/kg/injection, vehicle: distilled water + Tween-80); 1 of 6 on day 12 (dose: 150.0 mg/kg/injection, vehicle: distilled water + Tween-80); 0 of 6 on day 12 (dose: 300.0 mg/kg/injection, vehicle: distilled water + Tween-80).
Take `COc1cc2c(cc1OC)-c1c3c(cc4c1[C@@H](C2)N(C)CC4)OCO3`: the survivor count (dose: 300.0 mg/kg/injection, vehicle: distilled water + Tween-80 + alcohol) is listed as 0 of 6 on day 12.
Consider `O=C(O)[C@H](Cc1ccccc1)N1C(=O)c2ccccc2C1=O`, for which the survivor count (dose: 1200.0 mg/kg/injection, vehicle: DMSO) is given as 0 of 6 on day 12.
For the molecule `O=C1CN(CCN2CC(=O)N(CN3CCOCC3)C(=O)C2)CC(=O)N1CN1CCOCC1`, the survivor count is, setting by setting: (dose: 150.0 mg/kg/injection, vehicle: saline with Tween-80) 2 of 6 on day 12; under setting [1], 1 of 6 on day 12.
For `COc1cc2c(cc1OC)[C@@H]1C(=O)c3ccc4c(c3O[C@@H]1CO2)C[C@H](C(C)C)O4`, where the note is “dose: 170.0 mg/kg/injection, vehicle: Klucel (hydroxypropylcellulose) (HPC)”, the survivor count is given as 0 of 6 on day 12.
In the case of `O=c1[nH]cnc2c1cnn2CN1CCOCC1`, the survivor count is 0 of 6 on day 12 under setting [2] and 0 of 6 on day 12 under setting [3].
For the molecule `Nc1ccn([C@@H](C=O)C[C@@H](C=O)CO)c(=O)n1`, the T/C (dose: 150.0 mg/kg/injection, vehicle: saline with Tween-80, evaluated on day 12) is 141 % of control.
For `O=C(/C=C/c1cccnc1)/C=C/c1cccnc1`, where the note is “dose: 25.0 mg/kg/injection, vehicle: Klucel (hydroxypropylcellulose) (HPC), evaluated on day 12”, the T/C is 138 % of control. Further, the survivor count was 3 of 6 on day 12 (dose: 100.0 mg/kg/injection, vehicle: Klucel (hydroxypropylcellulose) (HPC)); 0 of 6 on day 12 under setting [2]; 0 of 6 on day 12 under setting [3].
With `COc1cc2c(c(OC)c1O)-c1ccc(OC)c(=O)cc1[C@@H](NC(=O)C(F)(F)F)CC2`, the survivor count (dose: 33.33 mg/kg/injection, vehicle: Klucel (hydroxypropylcellulose) (HPC)) is given as 1 of 5 on day 12 and the survivor count (dose: 40.0 mg/kg/injection, vehicle: Klucel (hydroxypropylcellulose) (HPC)) is 2 of 6 on day 12.
With `CCOC1NC(=O)Oc2ccccc21` (configuration not stated), the survivor count reads like this: under setting [4], 2 of 6 on day 12; (dose: 1200.0 mg/kg/injection, vehicle: Klucel (hydroxypropylcellulose) (HPC)) 0 of 6 on day 12.
As for `O=S(=O)(O)c1cc(N=C=S)ccc1/C=C/c1ccc(N=C=S)cc1S(=O)(=O)O`, under “dose: 15.0 mg/kg/injection, vehicle: saline, evaluated on day 12”, the T/C was 144 % of control.
As to `N[C@@H](Cc1c[nH]c2ccccc12)C(=O)Nc1nncs1`, the survivor count (dose: 1200.0 mg/kg/injection, vehicle: suspension in saline) is reported as 3 of 6 on day 12.
As for `COc1ccc2oc(-c3ccc(Cl)cc3)c(N3CCN(C)CC3)c2c1`, the survivor count is reported as 2 of 6 on day 12 (dose: 300.0 mg/kg/injection, vehicle: saline) and 0 of 6 on day 12 (dose: 600.0 mg/kg/injection, vehicle: saline).
As for `[CH3][Sn]([CH3])([Cl])[c]1cc[c]([Sn]([CH3])([CH3])[Cl])cc1`, the survivor count (dose: 10.0 mg/kg/injection, vehicle: saline) was 0 of 6 on day 12.
`C/C(=N\NC(=S)N1CC2CCC(CC2)C1)c1nccs1`: the survivor count (dose: 100.0 mg/kg/injection, vehicle: saline with Tween-80) was 0 of 6 on day 12.
Consider `C=C1c2cccc(O)c2C(O)=C2C(=O)[C@]3(O)C(O)=C(C(N)=O)C(=O)[C@@H](N(C)C)[C@@H]3[C@@H](O)[C@H]12`, for which the survivor count (dose: 150.0 mg/kg/injection, vehicle: Klucel (hydroxypropylcellulose) (HPC)) was 3 of 6 on day 12; the survivor count under setting [4] is 0 of 6 on day 12; the survivor count (dose: 600.0 mg/kg/injection, vehicle: Klucel (hydroxypropylcellulose) (HPC)) is 0 of 6 on day 12.
Take `COc1ccc(C[C@@H]2NC[C@@H](O)[C@@H]2OC(C)=O)cc1`: the survivor count under setting [1] is 1 of 4 on day 12.
On to `CN(C)N=Nc1ccc(C(N)=O)cc1`, for which, under “dose: 600.0 mg/kg/injection, vehicle: saline with Tween-80”, the survivor count is listed as 0 of 6 on day 12.
As to `Cc1cccc(OCC(O)CN2CC2)c1` (configuration not stated), the survivor count (dose: 400.0 mg/kg/injection, vehicle: saline with Tween-80) is on record as 0 of 6 on day 12.
